Laboratory results: the supplement of paper PMC10849652
This is one part of the list.

The chains behind the UniProt entries cited, without tags or fusion partners. Where a name states a change or a piece, a line headed by the entry shows the natural chain unless it says otherwise.
UniProt Q9H910: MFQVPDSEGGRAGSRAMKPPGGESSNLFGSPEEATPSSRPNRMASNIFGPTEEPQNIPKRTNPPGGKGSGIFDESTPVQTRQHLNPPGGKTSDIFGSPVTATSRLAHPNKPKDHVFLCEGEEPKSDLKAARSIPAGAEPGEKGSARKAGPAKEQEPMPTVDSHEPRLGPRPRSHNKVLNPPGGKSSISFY
UniProt Q9Y664: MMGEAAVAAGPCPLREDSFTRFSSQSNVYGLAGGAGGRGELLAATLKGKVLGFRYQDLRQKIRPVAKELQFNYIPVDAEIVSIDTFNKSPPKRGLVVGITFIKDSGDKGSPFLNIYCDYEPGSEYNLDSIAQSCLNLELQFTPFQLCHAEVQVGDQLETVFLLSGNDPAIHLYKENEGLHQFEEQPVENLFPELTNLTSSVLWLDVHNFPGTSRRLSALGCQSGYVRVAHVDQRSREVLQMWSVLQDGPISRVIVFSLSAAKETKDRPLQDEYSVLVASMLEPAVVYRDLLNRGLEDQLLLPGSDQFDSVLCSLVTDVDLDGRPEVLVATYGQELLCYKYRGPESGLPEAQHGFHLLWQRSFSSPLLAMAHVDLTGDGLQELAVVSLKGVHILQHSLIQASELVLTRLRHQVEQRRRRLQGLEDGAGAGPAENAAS
UniProt Q9NQR1: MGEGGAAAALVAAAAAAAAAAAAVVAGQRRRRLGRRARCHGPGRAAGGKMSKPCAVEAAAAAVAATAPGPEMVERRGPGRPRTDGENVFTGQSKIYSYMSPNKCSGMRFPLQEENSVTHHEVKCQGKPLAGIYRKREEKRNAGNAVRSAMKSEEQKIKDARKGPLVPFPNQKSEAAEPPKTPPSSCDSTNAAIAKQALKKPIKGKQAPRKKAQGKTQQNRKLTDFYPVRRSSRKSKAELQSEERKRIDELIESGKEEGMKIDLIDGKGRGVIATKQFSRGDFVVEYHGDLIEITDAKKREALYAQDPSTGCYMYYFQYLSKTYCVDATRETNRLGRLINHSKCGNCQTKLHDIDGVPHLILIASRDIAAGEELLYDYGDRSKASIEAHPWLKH
UniProt Q719H9: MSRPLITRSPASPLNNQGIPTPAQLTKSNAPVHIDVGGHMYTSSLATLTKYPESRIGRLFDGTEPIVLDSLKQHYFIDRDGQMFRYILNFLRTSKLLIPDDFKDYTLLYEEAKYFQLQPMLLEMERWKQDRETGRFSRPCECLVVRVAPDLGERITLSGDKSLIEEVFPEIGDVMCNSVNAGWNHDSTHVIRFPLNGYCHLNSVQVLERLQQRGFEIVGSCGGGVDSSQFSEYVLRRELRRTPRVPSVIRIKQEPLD
UniProt A6NCN2: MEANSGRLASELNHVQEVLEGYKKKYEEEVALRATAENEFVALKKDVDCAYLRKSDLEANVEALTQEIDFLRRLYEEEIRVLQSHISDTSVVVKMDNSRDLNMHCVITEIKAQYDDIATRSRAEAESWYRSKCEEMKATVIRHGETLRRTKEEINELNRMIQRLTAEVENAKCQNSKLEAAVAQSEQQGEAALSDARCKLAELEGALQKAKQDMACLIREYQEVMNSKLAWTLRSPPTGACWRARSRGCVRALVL
UniProt Q9Y2M5: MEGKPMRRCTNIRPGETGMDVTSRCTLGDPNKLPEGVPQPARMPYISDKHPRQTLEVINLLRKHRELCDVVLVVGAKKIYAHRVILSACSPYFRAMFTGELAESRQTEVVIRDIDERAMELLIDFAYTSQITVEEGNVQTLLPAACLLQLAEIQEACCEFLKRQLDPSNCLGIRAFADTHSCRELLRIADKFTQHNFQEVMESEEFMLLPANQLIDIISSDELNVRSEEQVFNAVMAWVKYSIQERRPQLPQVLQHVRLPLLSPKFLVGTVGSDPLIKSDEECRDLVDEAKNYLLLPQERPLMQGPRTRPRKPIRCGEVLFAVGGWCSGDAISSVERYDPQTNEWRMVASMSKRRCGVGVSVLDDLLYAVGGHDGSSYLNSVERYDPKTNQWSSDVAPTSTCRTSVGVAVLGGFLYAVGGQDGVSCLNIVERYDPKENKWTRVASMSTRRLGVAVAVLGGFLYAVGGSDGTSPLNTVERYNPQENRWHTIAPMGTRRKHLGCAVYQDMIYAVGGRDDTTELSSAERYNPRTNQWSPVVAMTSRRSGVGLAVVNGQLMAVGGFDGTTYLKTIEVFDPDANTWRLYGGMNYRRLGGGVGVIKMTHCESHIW
UniProt Q9Y4C1: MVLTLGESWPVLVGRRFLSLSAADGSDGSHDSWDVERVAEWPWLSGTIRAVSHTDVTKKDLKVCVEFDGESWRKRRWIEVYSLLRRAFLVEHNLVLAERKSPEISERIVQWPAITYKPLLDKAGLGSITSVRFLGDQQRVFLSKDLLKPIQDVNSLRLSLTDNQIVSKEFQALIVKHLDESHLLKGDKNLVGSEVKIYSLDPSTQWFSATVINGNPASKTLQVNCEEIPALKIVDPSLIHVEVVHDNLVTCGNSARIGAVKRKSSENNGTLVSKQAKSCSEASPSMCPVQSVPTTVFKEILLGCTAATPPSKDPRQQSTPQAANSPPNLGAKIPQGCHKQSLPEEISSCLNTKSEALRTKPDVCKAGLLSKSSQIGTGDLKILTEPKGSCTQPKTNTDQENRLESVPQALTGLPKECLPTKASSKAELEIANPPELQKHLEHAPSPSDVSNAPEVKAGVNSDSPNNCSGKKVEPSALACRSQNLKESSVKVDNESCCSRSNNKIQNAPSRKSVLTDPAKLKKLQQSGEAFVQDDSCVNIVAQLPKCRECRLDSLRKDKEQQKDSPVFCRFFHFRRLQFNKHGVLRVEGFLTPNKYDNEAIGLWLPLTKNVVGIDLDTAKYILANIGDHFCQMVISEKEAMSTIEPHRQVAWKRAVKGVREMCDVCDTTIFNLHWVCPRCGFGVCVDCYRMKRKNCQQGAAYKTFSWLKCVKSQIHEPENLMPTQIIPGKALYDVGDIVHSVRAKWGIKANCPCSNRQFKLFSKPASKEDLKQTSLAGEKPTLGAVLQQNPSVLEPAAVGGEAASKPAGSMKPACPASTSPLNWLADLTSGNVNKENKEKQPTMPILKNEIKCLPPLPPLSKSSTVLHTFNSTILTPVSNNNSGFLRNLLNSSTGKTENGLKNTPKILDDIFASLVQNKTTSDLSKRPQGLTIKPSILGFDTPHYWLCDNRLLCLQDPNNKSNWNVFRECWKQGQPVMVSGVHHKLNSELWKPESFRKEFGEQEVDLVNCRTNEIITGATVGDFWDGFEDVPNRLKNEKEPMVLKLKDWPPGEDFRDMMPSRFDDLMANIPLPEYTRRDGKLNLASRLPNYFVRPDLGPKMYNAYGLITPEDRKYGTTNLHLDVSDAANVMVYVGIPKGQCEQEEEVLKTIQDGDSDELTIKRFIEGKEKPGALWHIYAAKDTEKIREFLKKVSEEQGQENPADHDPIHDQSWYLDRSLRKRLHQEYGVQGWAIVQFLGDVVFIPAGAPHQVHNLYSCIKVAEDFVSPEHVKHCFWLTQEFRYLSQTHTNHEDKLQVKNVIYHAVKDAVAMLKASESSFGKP
UniProt O75037: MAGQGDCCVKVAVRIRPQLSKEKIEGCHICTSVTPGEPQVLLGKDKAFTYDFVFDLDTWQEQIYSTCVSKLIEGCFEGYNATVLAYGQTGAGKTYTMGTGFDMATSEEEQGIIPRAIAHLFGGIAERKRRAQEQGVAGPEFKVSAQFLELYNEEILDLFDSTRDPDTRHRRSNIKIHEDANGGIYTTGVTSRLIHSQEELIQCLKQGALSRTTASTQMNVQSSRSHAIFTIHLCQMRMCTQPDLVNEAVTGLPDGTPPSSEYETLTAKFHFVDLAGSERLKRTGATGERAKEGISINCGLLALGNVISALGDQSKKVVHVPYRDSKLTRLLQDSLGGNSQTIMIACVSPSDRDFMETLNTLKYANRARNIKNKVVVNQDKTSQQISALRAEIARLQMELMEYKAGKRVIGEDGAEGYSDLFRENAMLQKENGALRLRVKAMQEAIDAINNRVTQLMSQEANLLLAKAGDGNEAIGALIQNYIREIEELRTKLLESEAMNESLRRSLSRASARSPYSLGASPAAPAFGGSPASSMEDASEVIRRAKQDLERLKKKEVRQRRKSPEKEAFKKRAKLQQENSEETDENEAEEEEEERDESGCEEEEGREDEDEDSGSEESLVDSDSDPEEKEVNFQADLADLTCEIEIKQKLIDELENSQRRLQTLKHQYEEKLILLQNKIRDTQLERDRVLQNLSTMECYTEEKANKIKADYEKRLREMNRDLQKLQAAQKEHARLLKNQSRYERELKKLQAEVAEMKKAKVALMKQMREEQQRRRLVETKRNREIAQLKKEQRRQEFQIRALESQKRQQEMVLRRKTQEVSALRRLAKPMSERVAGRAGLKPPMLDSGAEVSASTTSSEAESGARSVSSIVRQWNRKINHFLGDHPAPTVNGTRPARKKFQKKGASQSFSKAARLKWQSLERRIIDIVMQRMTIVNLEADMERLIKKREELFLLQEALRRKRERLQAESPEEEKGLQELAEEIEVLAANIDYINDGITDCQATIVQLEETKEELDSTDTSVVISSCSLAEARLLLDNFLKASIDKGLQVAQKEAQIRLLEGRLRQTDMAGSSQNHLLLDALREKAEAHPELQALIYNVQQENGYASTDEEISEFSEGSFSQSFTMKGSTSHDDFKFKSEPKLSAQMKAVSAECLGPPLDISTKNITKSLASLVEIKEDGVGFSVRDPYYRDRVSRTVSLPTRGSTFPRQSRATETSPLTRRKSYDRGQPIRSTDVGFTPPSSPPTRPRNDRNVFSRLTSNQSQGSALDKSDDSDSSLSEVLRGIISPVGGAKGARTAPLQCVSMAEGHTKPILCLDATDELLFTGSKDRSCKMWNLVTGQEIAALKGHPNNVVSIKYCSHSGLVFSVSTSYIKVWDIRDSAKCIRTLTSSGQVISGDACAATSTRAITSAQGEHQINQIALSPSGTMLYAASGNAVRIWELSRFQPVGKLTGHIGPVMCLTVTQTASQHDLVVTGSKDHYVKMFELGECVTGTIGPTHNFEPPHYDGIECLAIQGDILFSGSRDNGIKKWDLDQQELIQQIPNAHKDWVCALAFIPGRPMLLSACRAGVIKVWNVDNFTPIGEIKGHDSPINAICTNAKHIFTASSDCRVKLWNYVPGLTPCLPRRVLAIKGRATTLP
UniProt Q9P2K6: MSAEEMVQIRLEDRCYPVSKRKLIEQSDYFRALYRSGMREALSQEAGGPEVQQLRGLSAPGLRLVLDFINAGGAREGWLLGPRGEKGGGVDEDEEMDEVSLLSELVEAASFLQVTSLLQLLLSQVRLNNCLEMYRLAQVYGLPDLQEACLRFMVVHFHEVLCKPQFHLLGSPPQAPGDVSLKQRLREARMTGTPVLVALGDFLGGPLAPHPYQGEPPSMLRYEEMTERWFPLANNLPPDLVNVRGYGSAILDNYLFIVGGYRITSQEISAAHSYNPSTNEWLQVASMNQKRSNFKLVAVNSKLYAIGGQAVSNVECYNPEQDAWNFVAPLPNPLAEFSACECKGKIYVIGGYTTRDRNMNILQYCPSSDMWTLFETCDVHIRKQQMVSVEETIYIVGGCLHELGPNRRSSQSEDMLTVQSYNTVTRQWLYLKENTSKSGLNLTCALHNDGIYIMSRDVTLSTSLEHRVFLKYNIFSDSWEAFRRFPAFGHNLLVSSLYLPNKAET
UniProt O95235: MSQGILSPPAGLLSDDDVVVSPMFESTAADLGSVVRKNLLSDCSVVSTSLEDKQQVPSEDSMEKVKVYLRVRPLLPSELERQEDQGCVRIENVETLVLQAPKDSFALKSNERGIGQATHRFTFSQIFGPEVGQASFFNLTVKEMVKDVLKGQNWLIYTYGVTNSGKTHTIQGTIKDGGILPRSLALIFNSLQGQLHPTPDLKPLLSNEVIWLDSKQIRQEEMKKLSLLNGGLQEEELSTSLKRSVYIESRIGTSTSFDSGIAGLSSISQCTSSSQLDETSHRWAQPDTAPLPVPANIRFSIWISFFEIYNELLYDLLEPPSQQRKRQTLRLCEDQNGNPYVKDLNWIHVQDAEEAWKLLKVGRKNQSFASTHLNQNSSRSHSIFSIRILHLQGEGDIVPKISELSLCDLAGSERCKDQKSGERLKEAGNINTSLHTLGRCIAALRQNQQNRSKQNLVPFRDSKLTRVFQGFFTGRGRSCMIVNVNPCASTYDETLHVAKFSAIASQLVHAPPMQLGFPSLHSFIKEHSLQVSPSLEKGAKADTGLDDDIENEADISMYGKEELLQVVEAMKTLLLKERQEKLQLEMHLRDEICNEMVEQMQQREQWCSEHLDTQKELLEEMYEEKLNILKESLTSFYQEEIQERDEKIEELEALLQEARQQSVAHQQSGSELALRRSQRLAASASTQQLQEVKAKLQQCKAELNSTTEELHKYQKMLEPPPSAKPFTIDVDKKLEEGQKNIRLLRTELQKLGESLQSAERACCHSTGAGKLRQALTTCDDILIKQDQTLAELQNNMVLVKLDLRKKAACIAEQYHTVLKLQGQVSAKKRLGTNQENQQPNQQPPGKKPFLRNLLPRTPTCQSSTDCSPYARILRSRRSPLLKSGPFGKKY
UniProt Q15053: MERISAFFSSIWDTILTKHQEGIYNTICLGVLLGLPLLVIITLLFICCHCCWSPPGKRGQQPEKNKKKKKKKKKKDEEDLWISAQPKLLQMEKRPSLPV

Legend:
Assay in all cases: log2 fold change, soluble protein after heating vs DMSO (PISA); higher = thermal stabilisation; K562 cells, 10 uM, 30 min; active = over 0.2 and 3.5 SD of the protein, either way, in both replicates (recomputed)
[1] = compound: CC1=C(C=C(C=C1)NC(=O)C2=CC(=CC=C2)N(C)C)NC(=O)C3=CC=C(C=C3)O
Outline: (§1)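 K562 cells at 2×10^6 cells/mL were given 10 μM compound for 30 min. Aliquots then went through 3 min of heating across 48°C-58°C, were pooled, and were extracted in PBS with 0.5% NP-40 at 4°C, and the supernatant after 21,000xg for 90 min was quantified by TMTpro 16plex LC-MS/MS with channel sums equalised. Thermal stability relative to control samples, from duplicates, is given as log2 fold change.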

[2] = compound: CC1=CC=C(C=C1)SC2=C3C=C(SC3=CN=C2)C(=O)N
Outline: as §1

[3] = compound: CC1=NC(=CC=C1)C2=C(N=C(N2)C(C)(C)C)C3=CC4=NC=CN=C4C=C3
Outline: as §1

[4] = compound: CCCCN(Cc1ccc(C(=O)NO)cc1)C(=O)Nc1ccccc1 [Nexturastat A]
Outline: as §1

[5] = compound: CCCS(=O)(=O)Nc1ccc(F)c(C(=O)c2c[nH]c3ncc(-c4ccc(Cl)cc4)cc23)c1F [vemurafenib]
Outline: as §1

[6] = compound: CCCS(=O)(=O)Nc1ccc(F)c(C(=O)c2c[nH]c3ncc(Cl)cc23)c1F
Outline: as §1

[7] = compound: CCN(CC)Cc1ccc2cc(COC(=O)Nc3ccc(C(=O)NO)cc3)ccc2c1 [givinostat]
Outline: as §1

[8] = compound: CCN(CCCOc1ccc2c(Nc3cc(CC(=O)Nc4cccc(F)c4)[nH]n3)ncnc2c1)CCOP(=O)(O)O [barasertib]
Outline: as §1

[9] = compound: CC[C@@H]1C(=O)N(C)c2cnc(Nc3ccc(C(=O)NC4CCN(C)CC4)cc3OC)nc2N1C1CCCC1
Outline: as §1

[10] = compound: CC[C@@H]1C(=O)N(C)c2cnc(Nc3ccc(C(=O)N[C@H]4CC[C@H](N5CCN(CC6CC6)CC5)CC4)cc3OC)nc2N1C(C)C [volasertib]
Outline: as §1

[11] = compound: CC[C@H](C)[C@@H](C(=O)N[C@@H]([C@@H](C)O)C(=O)N[C@@H](CC(C)C)C(=O)[C@]1(CO1)C)NC(=O)[C@H]([C@@H](C)CC)N(C)C(=O)C [epoxomicin]
Outline: as §1

[12] = compound: CCn1c(C(=O)N(C2CC2)C2CC2)cc2c3c(ncn3C)c(Nc3cc(C)n(C)n3)nc21
Outline: as §1

[13] = compound: CN(C)CC(=O)Nc1ccc2[nH]c(=O)c3ccccc3c2c1
Outline: as §1

[14] = compound: CN(CCOC1=CC=C(C=C1)C[C@H]2C(=O)NC(=O)S2)C3=CC=CC=N3 (racemic) [rosiglitazone]
Outline: as §1

[15] = compound: CN1C2=C(C3=C1C(=O)N(N=C3)CC4=CC(=CC=C4)N)SC(=C2)S(=O)C
Outline: as §1

[16] = compound: CC1=C(C=C(C=C1)NC(=O)C2=CC(=CC=C2)C(C)(C)C#N)NC3=CC4=C(C=C3)N=CN(C4=O)C
Outline: as §1

[17] = compound: CCCc1cc(C)[nH]c(=O)c1CNC(=O)c1cc(-c2ccnc(N3CCN(C)CC3)c2)cc2c1cnn2C(C)C
Outline: as §1

[18] = compound: CC[C@H](C)N1C=C(C2=C(C=C(C=C21)C3=CN=C(C=C3)N4CCNCC4)C(=O)NCC5=C(C=C(NC5=O)C)C)C
Outline: as §1

[19] = compound: CCn1cc(-c2ccnc3[nH]c(-c4cccc(CN(C)C)c4)cc23)c(-c2ccc(NC(=O)N(C)C)cc2)n1
Outline: as §1

[20] = compound: CN1CCC(CNc2ccc3ncc(-c4cccc(OC(F)(F)F)c4)n3n2)CC1
Outline: as §1

Measured: log2 fold change

KIAA1755 (UniProt Q5JYT7)
inactive: [1] -0.012 | [2] -0.021 | [3] 0.024 | [4] 0.218 | [5] -0.027 | [6] -0.019 | [7] 0.007 | [8] 0.002 | [9] 0.055 | [10] -0.027 | [11] -0.179 | [12] 0.032 | [13] -0.129 | [14] 0.11 | [15] 0.043

KIAA0930 isoform 2 (UniProt Q6ICG6)
inactive: [16] -0.062 | [2] 0.031 | [3] -0.014 | [4] -0.065 | [5] -0.003 | [6] -0.046 | [17] -0.126 | [7] 0.019 | [8] 0.083 | [9] 0.067 | [10] -0.058 | [18] -0.098 | [11] 0.073 | [12] -0.073 | [13] -0.012 | [14] -0.037 | [15] -0.035

JMJD4 (UniProt Q9H9V9)
inactive: [16] 0.154 | [2] 0.144 | [3] 0.125 | [6] 0.059 | [8] 0.085 | [10] -0.225 | [18] -0.107 | [14] -0.027 | [15] -0.106

KLHL7 (UniProt Q8IXQ5)
inactive: [16] -0.114 | [2] 0.004 | [4] -0.08 | [5] -0.511 | [6] -0.078 | [7] -0.062 | [8] -0.055 | [10] -0.007 | [18] -0.023 | [11] 0.02 | [12] 0.06 | [13] -0.445 | [14] -0.035 | [15] 0.02

KLF16 (UniProt Q9BXK1)
inactive: [16] -0.039 | [2] -0.073 | [3] -0.024 | [5] -0.146 | [6] -0.009 | [17] 0.031 | [7] 0.047 | [8] -0.157 | [9] 0.017 | [10] 0.08 | [18] -0.072 | [12] 0.023 | [19] 0.055 | [13] 0.086 | [14] 0.054 | [15] 0.149 | [20] 0.036

KMT2A isoform 3 (UniProt Q03164)
inactive: [16] 0.14 | [1] -0.039 | [7] 0.114 | [12] -0.019 | [19] 0.151 | [15] -0.011 | [20] -0.015

KBTBD7 (UniProt Q8WVZ9)
inactive: [16] -0.122 | [7] 0.057 | [18] 0.091 | [12] 0.075 | [19] -0.045 | [15] 0.025 | [20] -0.107

JPT2 isoform 2 (UniProt Q9H910)
inactive: [16] -0.018 | [2] 0.049 | [3] -0.009 | [5] -0.001 | [6] -0.142 | [17] -0.002 | [7] 0.027 | [8] 0.008 | [9] -0.297 | [10] -0.069 | [18] -0.022 | [12] 0.017 | [13] 0.022 | [14] 0.004

KATNAL1 (UniProt Q9BW62)
inactive: [16] -0.262 | [2] 0.109 | [3] -0.199 | [4] 0.107 | [5] -0.005 | [6] 0.034 | [8] 0.208 | [10] -0.062 | [11] -0.034 | [13] 0.007 | [14] 0.088 | [15] 0.07

KSR2 (UniProt Q6VAB6)
inactive: [16] 0.024 | [4] 0.083 | [7] 0.088 | [11] 0.109 | [12] 0.048 | [19] 0.209 | [20] -0.007

KPTN (UniProt Q9Y664)
inactive: [1] -0.005 | [2] 0.131 | [3] 0.04 | [4] 0.011 | [5] 0.123 | [6] 0 | [17] -0.003 | [7] 0.037 | [8] 0.103 | [9] 0.019 | [10] -0.071 | [18] 0.162 | [11] 0.047 | [12] -0.004 | [19] 0.048 | [13] 0.055 | [14] 0.044 | [15] -0.023 | [20] -0.187

Taken from the results shown (7 entries):
JMJD4 (UniProt Q9H9V9)
inactive: [16] 0.154 | [2] 0.144 | [3] 0.125 | [6] 0.059 | [8] 0.085 | [10] -0.225 | [18] -0.107 | [14] -0.027 | [15] -0.106

KLHL7 (UniProt Q8IXQ5)
inactive: [16] -0.114 | [2] 0.004 | [4] -0.08 | [5] -0.511 | [6] -0.078 | [7] -0.062 | [8] -0.055 | [10] -0.007 | [18] -0.023 | [11] 0.02 | [12] 0.06 | [13] -0.445 | [14] -0.035 | [15] 0.02

KLF16 (UniProt Q9BXK1)
inactive: [16] -0.039 | [2] -0.073 | [3] -0.024 | [5] -0.146 | [6] -0.009 | [17] 0.031 | [7] 0.047 | [8] -0.157 | [9] 0.017 | [10] 0.08 | [18] -0.072 | [12] 0.023 | [19] 0.055 | [13] 0.086 | [14] 0.054 | [15] 0.149 | [20] 0.036

KMT2A isoform 3 (UniProt Q03164)
inactive: [16] 0.14 | [1] -0.039 | [7] 0.114 | [12] -0.019 | [19] 0.151 | [15] -0.011 | [20] -0.015

KBTBD7 (UniProt Q8WVZ9)
inactive: [16] -0.122 | [7] 0.057 | [18] 0.091 | [12] 0.075 | [19] -0.045 | [15] 0.025 | [20] -0.107

JPT2 isoform 2 (UniProt Q9H910)
inactive: [16] -0.018 | [2] 0.049 | [3] -0.009 | [5] -0.001 | [6] -0.142 | [17] -0.002 | [7] 0.027 | [8] 0.008 | [9] -0.297 | [10] -0.069 | [18] -0.022 | [12] 0.017 | [13] 0.022 | [14] 0.004

KATNAL1 (UniProt Q9BW62)
inactive: [16] -0.262 | [2] 0.109 | [3] -0.199 | [4] 0.107 | [5] -0.005 | [6] 0.034 | [8] 0.208 | [10] -0.062 | [11] -0.034 | [13] 0.007 | [14] 0.088 | [15] 0.07

Next records follow:

KMT5A (UniProt Q9NQR1)
inactive: [16] 0.07 | [19] 0.091 | [20] -0.2

JOSD1 (UniProt Q15040)
inactive: [4] 0.05 | [7] 0.05 | [11] 0.164 | [12] 0.107 | [15] 0.06

KCTD1 (UniProt Q719H9)
inactive: [3] 0.026 | [4] 0.088 | [5] -0.08 | [18] 0.005 | [11] 0.079 | [13] -0.067 | [15] 0.205

KRT87P (UniProt A6NCN2)
inactive: [8] 0.078 | [14] 1.15

KRR1 (UniProt Q13601)
inactive: [3] -0.151 | [9] 0.167 | [19] -0.546 | [20] 0.141

KLHDC2 (UniProt Q9Y2U9)
inactive: [18] 0.128

KRT10, A0A1B0GVI3
inactive: [17] 0.116 | [18] 0.058 | [19] -0.332 | [20] 0.045

JCHAIN (UniProt P01591)
inactive: [17] -0.204 | [8] 0.385 | [9] 0.125 | [18] 1.51 | [14] 0.02

KLHL20 (UniProt Q9Y2M5)
inactive: [1] 0.028 | [2] -0.002 | [5] 0.049 | [6] 0 | [17] -0.012 | [7] 0.168 | [10] -0.055 | [18] -0.117 | [12] 0.115 | [19] 0.032 | [13] 0.113 | [15] 0.03 | [20] -0.172

KIF21A (UniProt H0YI78)
inactive: [1] -0.001 | [7] 0.447

KIF1B isoform 3 (UniProt O60333)
inactive: [5] -0.244 | [17] -0.006 | [9] 0.193 | [13] -0.032

KAT6B (UniProt Q8WYB5)
inactive: [1] 0.021 | [2] -0.183 | [5] -0.055 | [6] -0.04 | [17] -0.021 | [7] 0.043 | [8] -0.054 | [9] -0.006 | [10] 0.013 | [18] -0.064 | [12] 0.072 | [19] -0.04 | [13] -0.032 | [14] -0.026 | [20] 0

KDM3A (UniProt Q9Y4C1)
inactive: [7] -0.078 | [9] 0.149 | [12] -0.17 | [19] -0.058 | [20] -0.078

KIFC1 (UniProt Q9BW19)
inactive: [1] -0.093 | [4] -0.154 | [17] -0.152 | [11] -0.032 | [19] -0.033 | [20] 0.055

KIAA0754 (UniProt O94854)
inactive: [1] -0.11 | [2] -0.123 | [4] 0.163 | [6] -0.074 | [8] 0.156 | [10] -0.047 | [11] -0.079 | [14] -0.168 | [15] 0.064

KCTD7 (UniProt Q96MP8)
inactive: [2] -0.02 | [6] -0.046 | [17] 0.018 | [8] 0.028 | [10] -0.004 | [18] 0.099 | [19] 0 | [14] -0.032 | [15] 0.019 | [20] 0.112

KHSRP (UniProt M0R3J3)
inactive: [4] -0.115 | [11] -0.056

ITSN2 (UniProt Q9NZM3)
inactive: [7] -0.074 | [9] -0.316 | [12] -0.264 | [19] 0.389 | [20] 0.084

KIF21B (UniProt O75037)
inactive: [1] 0.05 | [4] 0.509 | [7] 0.293 | [18] -0.078 | [11] -0.06 | [12] -0.193 | [15] -0.016

KLHL42 (UniProt Q9P2K6)
inactive: [2] -0.028 | [4] -0.238 | [6] 0.022 | [8] 0.099 | [10] -0.229 | [11] 0.043 | [14] 0.164 | [15] -0.081

KIF20A (UniProt O95235)
inactive: [4] 0.145 | [11] 0.013

KIAA0040 (UniProt Q15053)
inactive: [5] -0.081 | [17] 0.051 | [7] 0.126 | [18] -0.071 | [12] 0.07 | [13] -0.215
